# Measured values as given in the supplement of paper PMC10849652.
# Amino acid sequences for entries named in this document (tags omitted). A change or cut given only in a name is not applied to a line headed by its entry.
# UniProt Q9GZR7: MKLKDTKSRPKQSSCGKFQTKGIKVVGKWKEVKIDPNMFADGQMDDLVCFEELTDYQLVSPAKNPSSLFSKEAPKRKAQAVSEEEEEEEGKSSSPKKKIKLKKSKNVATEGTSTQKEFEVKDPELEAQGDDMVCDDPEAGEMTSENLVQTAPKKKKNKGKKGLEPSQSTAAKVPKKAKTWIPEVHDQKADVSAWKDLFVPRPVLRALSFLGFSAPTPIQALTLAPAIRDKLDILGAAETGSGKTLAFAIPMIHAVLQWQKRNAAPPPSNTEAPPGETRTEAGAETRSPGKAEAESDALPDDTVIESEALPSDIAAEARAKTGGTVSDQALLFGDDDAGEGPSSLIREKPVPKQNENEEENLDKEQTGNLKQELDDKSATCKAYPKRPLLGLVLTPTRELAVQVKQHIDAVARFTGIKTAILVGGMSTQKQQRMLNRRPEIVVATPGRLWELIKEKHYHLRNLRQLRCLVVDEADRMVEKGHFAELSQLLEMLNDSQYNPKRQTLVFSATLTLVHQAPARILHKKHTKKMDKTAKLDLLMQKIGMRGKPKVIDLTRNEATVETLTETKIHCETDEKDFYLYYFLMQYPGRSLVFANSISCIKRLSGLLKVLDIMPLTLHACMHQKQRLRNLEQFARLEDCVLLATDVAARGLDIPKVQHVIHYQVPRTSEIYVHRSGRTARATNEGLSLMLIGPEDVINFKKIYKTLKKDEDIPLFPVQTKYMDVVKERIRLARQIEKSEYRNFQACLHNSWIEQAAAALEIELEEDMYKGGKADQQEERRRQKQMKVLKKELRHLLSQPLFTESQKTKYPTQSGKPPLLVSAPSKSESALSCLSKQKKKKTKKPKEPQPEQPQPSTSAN
# UniProt Q7L014: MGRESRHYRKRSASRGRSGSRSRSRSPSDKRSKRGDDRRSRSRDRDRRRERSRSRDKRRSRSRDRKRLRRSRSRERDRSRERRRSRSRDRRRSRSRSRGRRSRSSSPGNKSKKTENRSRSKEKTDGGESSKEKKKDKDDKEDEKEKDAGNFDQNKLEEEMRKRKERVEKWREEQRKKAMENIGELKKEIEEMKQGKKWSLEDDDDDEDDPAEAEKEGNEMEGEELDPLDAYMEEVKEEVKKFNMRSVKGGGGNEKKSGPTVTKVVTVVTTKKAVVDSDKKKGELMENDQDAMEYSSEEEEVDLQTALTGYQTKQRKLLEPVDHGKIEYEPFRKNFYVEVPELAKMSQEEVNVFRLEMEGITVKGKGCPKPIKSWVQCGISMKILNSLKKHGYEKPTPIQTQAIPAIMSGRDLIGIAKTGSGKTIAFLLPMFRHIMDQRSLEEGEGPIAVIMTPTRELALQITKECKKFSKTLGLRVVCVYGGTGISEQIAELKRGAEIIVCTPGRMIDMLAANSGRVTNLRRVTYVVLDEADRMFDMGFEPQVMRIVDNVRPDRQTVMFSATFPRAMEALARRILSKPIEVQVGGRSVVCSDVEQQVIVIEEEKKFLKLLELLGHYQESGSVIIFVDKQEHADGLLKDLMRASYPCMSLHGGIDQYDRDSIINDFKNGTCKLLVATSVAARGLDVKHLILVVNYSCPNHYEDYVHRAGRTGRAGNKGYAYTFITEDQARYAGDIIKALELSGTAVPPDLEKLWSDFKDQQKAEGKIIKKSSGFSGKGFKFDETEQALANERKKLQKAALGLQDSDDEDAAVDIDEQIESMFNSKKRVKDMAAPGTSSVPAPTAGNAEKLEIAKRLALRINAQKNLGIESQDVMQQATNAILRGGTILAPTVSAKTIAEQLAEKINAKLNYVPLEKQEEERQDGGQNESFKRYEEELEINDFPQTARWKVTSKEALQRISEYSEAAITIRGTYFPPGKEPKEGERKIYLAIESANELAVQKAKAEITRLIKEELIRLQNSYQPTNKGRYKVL
# UniProt Q96GQ7: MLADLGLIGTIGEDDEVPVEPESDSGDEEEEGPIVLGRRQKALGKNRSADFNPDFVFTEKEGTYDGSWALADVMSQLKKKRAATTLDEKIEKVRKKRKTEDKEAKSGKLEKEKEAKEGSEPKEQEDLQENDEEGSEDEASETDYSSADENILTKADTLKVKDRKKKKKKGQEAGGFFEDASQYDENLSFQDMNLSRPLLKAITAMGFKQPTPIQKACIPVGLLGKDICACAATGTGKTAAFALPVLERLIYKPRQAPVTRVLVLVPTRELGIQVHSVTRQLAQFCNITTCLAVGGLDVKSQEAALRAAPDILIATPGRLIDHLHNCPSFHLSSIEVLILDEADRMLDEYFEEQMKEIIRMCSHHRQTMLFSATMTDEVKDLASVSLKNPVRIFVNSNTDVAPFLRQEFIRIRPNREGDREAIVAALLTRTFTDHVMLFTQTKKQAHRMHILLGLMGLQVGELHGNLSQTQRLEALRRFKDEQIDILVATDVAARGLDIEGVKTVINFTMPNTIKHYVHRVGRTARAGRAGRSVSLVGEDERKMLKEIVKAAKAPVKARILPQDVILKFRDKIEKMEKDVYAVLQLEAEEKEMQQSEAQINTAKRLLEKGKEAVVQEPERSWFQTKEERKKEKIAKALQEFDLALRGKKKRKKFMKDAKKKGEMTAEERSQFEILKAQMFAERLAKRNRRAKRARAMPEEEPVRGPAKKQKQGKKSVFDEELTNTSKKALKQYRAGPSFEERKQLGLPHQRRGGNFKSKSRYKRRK
# UniProt Q96HY6: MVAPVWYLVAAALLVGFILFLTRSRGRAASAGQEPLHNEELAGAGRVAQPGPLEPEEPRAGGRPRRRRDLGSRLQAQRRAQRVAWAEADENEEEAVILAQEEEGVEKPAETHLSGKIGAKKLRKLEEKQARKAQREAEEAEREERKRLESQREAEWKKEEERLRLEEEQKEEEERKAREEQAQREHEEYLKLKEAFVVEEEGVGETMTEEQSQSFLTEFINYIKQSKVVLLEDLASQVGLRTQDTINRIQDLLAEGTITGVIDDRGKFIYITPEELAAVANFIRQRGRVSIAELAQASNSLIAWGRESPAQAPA
# UniProt Q13561, whole entry, looked up: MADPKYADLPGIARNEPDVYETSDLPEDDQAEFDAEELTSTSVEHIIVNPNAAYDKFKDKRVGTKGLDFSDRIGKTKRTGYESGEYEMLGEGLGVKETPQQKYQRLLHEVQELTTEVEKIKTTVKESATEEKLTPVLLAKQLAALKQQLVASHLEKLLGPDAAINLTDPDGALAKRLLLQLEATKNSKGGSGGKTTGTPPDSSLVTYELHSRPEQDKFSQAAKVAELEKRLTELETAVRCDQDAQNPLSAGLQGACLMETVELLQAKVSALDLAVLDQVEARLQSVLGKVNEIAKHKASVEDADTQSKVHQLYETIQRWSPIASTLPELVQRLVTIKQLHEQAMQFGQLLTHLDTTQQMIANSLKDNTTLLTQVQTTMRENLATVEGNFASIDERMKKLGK
# UniProt Q7Z401: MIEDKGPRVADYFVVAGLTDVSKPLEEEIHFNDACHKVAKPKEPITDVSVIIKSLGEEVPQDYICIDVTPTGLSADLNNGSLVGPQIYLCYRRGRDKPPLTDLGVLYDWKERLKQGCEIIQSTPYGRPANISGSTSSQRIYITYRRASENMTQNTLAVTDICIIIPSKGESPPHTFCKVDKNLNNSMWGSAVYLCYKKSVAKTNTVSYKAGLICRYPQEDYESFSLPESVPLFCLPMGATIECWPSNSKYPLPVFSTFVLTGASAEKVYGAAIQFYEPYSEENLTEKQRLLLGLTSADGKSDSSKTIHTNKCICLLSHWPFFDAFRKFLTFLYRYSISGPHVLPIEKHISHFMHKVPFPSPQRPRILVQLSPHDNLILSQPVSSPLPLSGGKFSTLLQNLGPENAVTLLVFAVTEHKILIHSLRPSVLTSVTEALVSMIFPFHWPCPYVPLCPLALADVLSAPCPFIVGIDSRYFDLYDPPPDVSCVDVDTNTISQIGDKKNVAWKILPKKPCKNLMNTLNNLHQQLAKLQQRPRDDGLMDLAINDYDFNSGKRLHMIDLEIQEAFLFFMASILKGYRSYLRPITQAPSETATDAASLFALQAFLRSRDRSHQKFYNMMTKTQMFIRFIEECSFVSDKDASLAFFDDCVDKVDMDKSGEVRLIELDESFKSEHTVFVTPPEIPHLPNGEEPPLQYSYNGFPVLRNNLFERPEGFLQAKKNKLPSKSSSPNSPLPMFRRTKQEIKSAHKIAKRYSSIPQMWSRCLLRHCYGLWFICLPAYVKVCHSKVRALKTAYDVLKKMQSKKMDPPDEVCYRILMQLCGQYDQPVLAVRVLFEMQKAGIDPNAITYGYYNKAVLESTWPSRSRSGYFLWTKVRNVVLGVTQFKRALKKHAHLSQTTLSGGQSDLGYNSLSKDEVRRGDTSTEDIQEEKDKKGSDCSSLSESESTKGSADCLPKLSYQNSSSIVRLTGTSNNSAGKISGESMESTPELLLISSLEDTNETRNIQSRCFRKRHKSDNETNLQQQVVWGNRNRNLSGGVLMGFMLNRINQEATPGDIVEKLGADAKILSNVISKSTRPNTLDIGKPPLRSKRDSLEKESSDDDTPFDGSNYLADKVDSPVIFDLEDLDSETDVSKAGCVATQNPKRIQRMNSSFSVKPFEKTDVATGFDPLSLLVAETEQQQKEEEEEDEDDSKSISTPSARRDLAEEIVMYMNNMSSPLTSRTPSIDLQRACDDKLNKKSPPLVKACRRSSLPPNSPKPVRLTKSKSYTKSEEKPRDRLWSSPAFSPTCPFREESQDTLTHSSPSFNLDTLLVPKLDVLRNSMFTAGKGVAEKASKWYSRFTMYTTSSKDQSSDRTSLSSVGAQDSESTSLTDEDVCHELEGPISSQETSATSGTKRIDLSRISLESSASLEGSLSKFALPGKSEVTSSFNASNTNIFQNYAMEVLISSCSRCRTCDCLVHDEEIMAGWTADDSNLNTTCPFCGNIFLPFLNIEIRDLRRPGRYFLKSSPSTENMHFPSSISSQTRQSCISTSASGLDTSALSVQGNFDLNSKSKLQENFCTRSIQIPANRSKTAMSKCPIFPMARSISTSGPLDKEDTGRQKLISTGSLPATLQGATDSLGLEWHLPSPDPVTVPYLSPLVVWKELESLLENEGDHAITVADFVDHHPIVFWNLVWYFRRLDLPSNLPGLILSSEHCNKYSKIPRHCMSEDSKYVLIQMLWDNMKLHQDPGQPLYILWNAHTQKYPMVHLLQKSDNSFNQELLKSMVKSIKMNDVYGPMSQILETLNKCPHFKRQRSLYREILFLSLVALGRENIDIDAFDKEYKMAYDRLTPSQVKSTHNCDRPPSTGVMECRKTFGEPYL
# UniProt Q9NXF7, whole entry, looked up: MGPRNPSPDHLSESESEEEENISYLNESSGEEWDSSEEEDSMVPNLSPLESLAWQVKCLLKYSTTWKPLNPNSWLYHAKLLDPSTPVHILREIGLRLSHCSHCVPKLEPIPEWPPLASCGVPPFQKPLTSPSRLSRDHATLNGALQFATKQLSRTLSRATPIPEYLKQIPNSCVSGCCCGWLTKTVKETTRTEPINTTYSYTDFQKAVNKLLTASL
# UniProt Q8NEL9: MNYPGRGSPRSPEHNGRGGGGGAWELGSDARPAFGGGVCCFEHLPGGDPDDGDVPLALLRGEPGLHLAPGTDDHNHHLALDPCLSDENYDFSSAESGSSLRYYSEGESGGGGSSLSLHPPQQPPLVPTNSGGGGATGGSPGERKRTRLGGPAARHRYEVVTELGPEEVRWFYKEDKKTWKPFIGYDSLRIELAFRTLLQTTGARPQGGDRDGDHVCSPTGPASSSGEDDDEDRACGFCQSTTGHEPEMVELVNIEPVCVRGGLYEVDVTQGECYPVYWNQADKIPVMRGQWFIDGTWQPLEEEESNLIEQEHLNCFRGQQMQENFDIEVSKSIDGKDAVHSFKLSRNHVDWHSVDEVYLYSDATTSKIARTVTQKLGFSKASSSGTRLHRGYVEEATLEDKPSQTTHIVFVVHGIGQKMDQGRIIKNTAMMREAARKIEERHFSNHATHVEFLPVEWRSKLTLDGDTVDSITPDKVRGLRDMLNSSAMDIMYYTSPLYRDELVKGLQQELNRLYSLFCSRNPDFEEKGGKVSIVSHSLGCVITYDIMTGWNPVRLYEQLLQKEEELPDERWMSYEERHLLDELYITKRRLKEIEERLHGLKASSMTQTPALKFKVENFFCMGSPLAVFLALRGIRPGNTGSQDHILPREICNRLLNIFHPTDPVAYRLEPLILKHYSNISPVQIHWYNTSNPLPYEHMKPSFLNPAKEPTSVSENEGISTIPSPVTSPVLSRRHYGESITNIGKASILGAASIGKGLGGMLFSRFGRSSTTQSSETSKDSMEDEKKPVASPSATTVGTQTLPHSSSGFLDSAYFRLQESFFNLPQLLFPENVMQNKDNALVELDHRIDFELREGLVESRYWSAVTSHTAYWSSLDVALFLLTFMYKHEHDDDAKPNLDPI
# This is one part of the list.
# How the values were obtained:
# Assay in all cases: log2 fold change, soluble protein after heating vs DMSO (PISA); higher = thermal stabilisation; K562 lysate, 10 uM; active = over 0.2 and 3.5 SD of the protein, either way, in both replicates (recomputed)
# nilotinib = compound: Cc1cn(-c2cc(NC(=O)c3ccc(C)c(Nc4nccc(-c5cccnc5)n4)c3)cc(C(F)(F)F)c2)cn1 [nilotinib]
# Method in brief: (§1)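 Following dounce homogenisation of K562 pellets in PBS pH 7.4 with 1 mM MgCl2, crude extract at 1 mg/mL protein was incubated for 30 min with 10 μM compound. Aliquots were then heated for 3 min over 48°C-58°C and pooled, NP-40 was added to 0.5% at 4°C, and soluble protein was recovered as the supernatant at 21,000xg for 90 min. Channel-sum-equalised TMTpro 16plex LC-MS/MS quantified this protein. Each value, from duplicates, is a log-two fold change in thermal stability relative to solvent controls.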
# [1] = compound: Cc1nc(Nc2n[nH]c3c2CN(C(=O)N[C@H](CN(C)C)c2ccccc2)C3(C)C)c2sccc2n1
# Method in brief: as §1
# dasatinib = compound: Cc1nc(Nc2ncc(C(=O)Nc3c(C)cccc3Cl)s2)cc(N2CCN(CCO)CC2)n1 [dasatinib]
# Method in brief: as §1
# [2] = compound: Cc1ncc(-c2ccnc(Nc3ccc(S(C)(=O)=O)cc3)n2)n1C(C)C
# Method in brief: as §1
# [3] = compound: Cn1cc(-c2ccc3c(c2)CCN3C(=O)Cc2cccc(C(F)(F)F)c2)c2c(N)ncnc21
# Method in brief: as §1
# quisinostat = compound: Cn1cc(CNCC2CCN(c3ncc(C(=O)NO)cn3)CC2)c2ccccc21 [quisinostat]
# Method in brief: as §1
# tipifarnib = compound: Cn1cncc1[C@@](N)(c1ccc(Cl)cc1)c1ccc2c(c1)c(-c1cccc(Cl)c1)cc(=O)n2C [tipifarnib]
# Method in brief: as §1
# [4] = compound: NC(=O)Nc1cc(-c2cccc(F)c2)sc1C(=O)N[C@H]1CCCNC1
# Method in brief: as §1
# [5] = compound: NC(=O)c1cnc(N[C@@H]2CCCC[C@@H]2N)nc1Nc1cccc(-n2nccn2)c1
# Method in brief: as §1
# [6] = compound: NC1(c2ccc(-c3nc4ccn5c(=O)[nH]nc5c4cc3-c3ccccc3)cc2)CCC1
# Method in brief: as §1
# [7] = compound: NCC(=O)Nc1ccc(-n2nc(C(F)(F)F)cc2-c2ccc3c(ccc4ccccc43)c2)cc1
# Method in brief: as §1
# vorinostat = compound: O=C(CCCCCCC(=O)Nc1ccccc1)NO [vorinostat]
# Method in brief: as §1
# silmitasertib = compound: O=C(O)c1ccc2c(c1)nc(Nc1cccc(Cl)c1)c1ccncc12 [silmitasertib]
# Method in brief: as §1
# [8] = compound: O=C1NC(=O)C(c2cnc3ccccn23)=C1c1cn2c3c(cc(F)cc13)CN(C(=O)N1CCCCC1)CC2
# Method in brief: as §1
# entospletinib = compound: c1cn2cc(-c3ccc4cn[nH]c4c3)nc(Nc3ccc(N4CCOCC4)cc3)c2n1 [entospletinib]
# Method in brief: as §1
Target,log2 fold change (nilotinib),log2 fold change [1],log2 fold change (dasatinib),log2 fold change [2],log2 fold change [3],log2 fold change (quisinostat),log2 fold change (tipifarnib),log2 fold change [4],log2 fold change [5],log2 fold change [6],log2 fold change [7],log2 fold change (vorinostat),log2 fold change (silmitasertib),log2 fold change [8],log2 fold change (entospletinib)
DDX24 (UniProt Q9GZR7),inactive: 0.028,inactive: -0.026,inactive: 0.011,inactive: -0.055,inactive: -0.052,inactive: 0.045,inactive: 0.012,inactive: 0.028,inactive: 0.007,inactive: -0.017,inactive: 0.015,inactive: 0.068,inactive: -0.016,inactive: 0.02,inactive: 0.018
DDX46 (UniProt Q7L014),inactive: -0.01,inactive: 0.005,inactive: -0.04,inactive: 0.012,inactive: -0.01,inactive: -0.051,inactive: 0.003,inactive: -0.008,inactive: 0.011,inactive: 0.027,inactive: 0.013,inactive: -0.151,inactive: 0.028,inactive: 0.007,inactive: 0.02
DCUN1D1 (UniProt Q96GG9),inactive: -0.016,inactive: -0.004,inactive: 0.006,inactive: -0.03,inactive: 0.015,inactive: -0.027,inactive: 0.047,inactive: 0.016,inactive: -0.003,inactive: 0.059,inactive: 0.006,inactive: 0.161,inactive: 0.021,inactive: -0.005,inactive: 0.019
DDX27 (UniProt Q96GQ7),inactive: -0.007,inactive: 0.001,inactive: 0.004,inactive: -0.004,inactive: 0.013,inactive: -0.007,inactive: 0.025,inactive: -0.006,inactive: 0,inactive: -0.024,inactive: -0.006,inactive: 0.025,inactive: 0.015,inactive: 0.016,inactive: 0.011
DDRGK1 (UniProt Q96HY6),inactive: -0.065,inactive: -0.01,inactive: -0.004,inactive: 0.096,inactive: -0.005,inactive: -0.002,inactive: -0.014,inactive: 0.023,inactive: 0.025,inactive: -0.073,inactive: 0.006,inactive: 0.076,inactive: 0.007,inactive: -0.01,inactive: -0.024
DCTN2 isoform 3 (UniProt Q13561),inactive: 0.018,inactive: -0.041,inactive: -0.027,inactive: -0.032,inactive: 0.019,inactive: -0.008,inactive: -0.001,inactive: -0.053,inactive: -0.007,inactive: -0.004,inactive: -0.008,inactive: 0.087,inactive: -0.009,inactive: -0.02,inactive: -0.01
DENND4A isoform 2 (UniProt Q7Z401),inactive: -0.02,inactive: -0.002,inactive: -0.008,inactive: 0.023,inactive: 0.008,inactive: -0.083,inactive: -0.017,inactive: 0.058,inactive: 0.042,inactive: 0.008,inactive: 0.046,active: -0.379,inactive: 0.043,inactive: -0.02,inactive: -0.013
DDB1 (UniProt Q16531),inactive: 0.005,inactive: 0.005,inactive: 0.048,inactive: -0.007,inactive: 0.004,inactive: -0.004,inactive: 0.011,inactive: -0.012,inactive: -0.025,inactive: -0.003,inactive: 0.003,inactive: 0.101,inactive: -0.007,inactive: -0.022,inactive: 0.01
DCP2 (UniProt Q8IU60),inactive: -0.065,inactive: -0.051,inactive: 0.009,inactive: 0.032,inactive: -0.018,inactive: -0.094,inactive: -0.012,inactive: 0.014,inactive: 0.03,inactive: 0.024,inactive: -0.02,active: -0.446,inactive: -0.033,inactive: 0.085,inactive: -0.001
DDX42 (UniProt Q86XP3),inactive: 0.009,inactive: 0.023,inactive: -0.024,inactive: 0.026,inactive: 0.015,inactive: 0.006,inactive: 0.028,inactive: 0.041,inactive: 0,inactive: 0,inactive: -0.007,inactive: 0.001,inactive: 0.011,inactive: 0.028,inactive: 0.032
DDX3X (UniProt O00571),inactive: -0.028,inactive: -0.019,inactive: -0.023,inactive: -0.004,inactive: 0.086,inactive: -0.167,inactive: 0.027,inactive: 0.075,inactive: 0.073,inactive: -0.053,inactive: 0.047,inactive: -0.2,inactive: 0.092,inactive: 0,inactive: -0.023
DCAF16 (UniProt Q9NXF7),inactive: 0.03,inactive: 0.004,inactive: -0.014,inactive: 0.021,inactive: 0.027,inactive: -0.037,inactive: -0.067,inactive: 0.038,inactive: 0.029,inactive: 0.038,inactive: -0.011,inactive: -0.003,inactive: -0.047,inactive: -0.017,inactive: 0.049
DCPS (UniProt Q96C86),inactive: 0.006,inactive: -0.014,inactive: 0.019,inactive: 0.026,inactive: 0.001,inactive: -0.049,inactive: 0,inactive: 0.013,inactive: 0.024,inactive: -0.003,inactive: -0.009,inactive: 0.017,inactive: 0.004,inactive: 0.01,inactive: -0.027
DCTN1 isoform 4 (UniProt Q14203),inactive: 0.304,inactive: -0.331,inactive: -0.163,inactive: -0.288,inactive: -0.051,inactive: -0.064,inactive: -0.064,inactive: 0.074,inactive: 0.139,inactive: 0.169,inactive: 0.144,inactive: -0.143,inactive: -0.027,inactive: 0.011,inactive: -0.085
DCTN2 (UniProt Q13561),inactive: -0.211,inactive: 0.195,inactive: -0.057,inactive: 0.067,inactive: -0.133,inactive: -0.007,inactive: 0,inactive: 0.053,inactive: -0.025,inactive: -0.145,inactive: -0.008,inactive: 0.255,inactive: -0.082,inactive: 0.1,inactive: 0.017
DDX50 (UniProt Q9BQ39),inactive: -0.043,inactive: -0.015,inactive: 0.025,inactive: 0.043,inactive: 0.039,inactive: -0.027,inactive: 0.035,inactive: 0.063,inactive: 0.003,inactive: -0.004,inactive: 0.131,inactive: -0.034,inactive: 0.018,inactive: 0.055,inactive: -0.015
DDX23 (UniProt Q9BUQ8),inactive: -0.013,inactive: 0.016,inactive: -0.012,inactive: 0.004,inactive: -0.01,inactive: 0.021,inactive: -0.02,inactive: 0.021,inactive: -0.009,inactive: -0.025,inactive: -0.012,inactive: -0.142,inactive: 0.037,inactive: -0.006,inactive: 0.033
DDX47 (UniProt Q9H0S4),inactive: 0.054,inactive: -0.016,inactive: 0.014,inactive: 0.019,inactive: -0.016,inactive: -0.033,inactive: 0.021,inactive: -0.018,inactive: 0.048,inactive: -0.009,inactive: -0.03,inactive: -0.012,inactive: 0.004,inactive: -0.007,inactive: 0.033
DFFA (UniProt O00273),inactive: 0.03,inactive: -0.014,inactive: -0.001,inactive: 0.044,inactive: -0.019,inactive: 0.056,inactive: 0.025,inactive: -0.041,inactive: -0.015,inactive: -0.011,inactive: -0.004,inactive: 0.033,inactive: 0.006,inactive: 0.016,inactive: 0.022
DDX19B (UniProt Q9UMR2),inactive: -0.004,inactive: 0.004,inactive: -0.014,inactive: -0.002,inactive: -0.008,inactive: -0.071,inactive: -0.014,inactive: 0.02,inactive: 0.002,inactive: 0.006,inactive: 0.014,inactive: -0.132,inactive: 0.031,inactive: -0.019,inactive: 0.01
DDHD1 (UniProt Q8NEL9),inactive: 0.012,inactive: 0.018,inactive: 0.022,inactive: 0.026,inactive: 0.036,inactive: -0.129,inactive: -0.02,inactive: -0.095,inactive: -0.021,inactive: -0.039,inactive: -0.127,inactive: -0.029,inactive: 0.026,inactive: 0.035,inactive: -0.025

# Complete entries, quoted from the list. Values in the order: log2 fold change (nilotinib)	log2 fold change [1]	log2 fold change (dasatinib)	log2 fold change [2]	log2 fold change [3]	log2 fold change (quisinostat)	log2 fold change (tipifarnib)	log2 fold change [4]	log2 fold change [5]	log2 fold change [6]	log2 fold change [7]	log2 fold change (vorinostat)	log2 fold change (silmitasertib)	log2 fold change [8]	log2 fold change (entospletinib)
# DDX19B (UniProt Q9UMR2) as listed: inactive: -0.004	inactive: 0.004	inactive: -0.014	inactive: -0.002	inactive: -0.008	inactive: -0.071	inactive: -0.014	inactive: 0.02	inactive: 0.002	inactive: 0.006	inactive: 0.014	inactive: -0.132	inactive: 0.031	inactive: -0.019	inactive: 0.01
# DCUN1D1 (UniProt Q96GG9) as listed: inactive: -0.016	inactive: -0.004	inactive: 0.006	inactive: -0.03	inactive: 0.015	inactive: -0.027	inactive: 0.047	inactive: 0.016	inactive: -0.003	inactive: 0.059	inactive: 0.006	inactive: 0.161	inactive: 0.021	inactive: -0.005	inactive: 0.019
